Experimental data reported in US20230357438A1.
These are yes or no findings as the source states them, for the method shown. Some binding calls cover weakened binding; strength is not graded here.

By UniProt entry, the sequences of proteins in these tests, tags left out. Where a name states a change or a piece, a line headed by the entry shows the natural chain unless it says otherwise. Chains listed by the source or under a name are the forms on record and can include a tag or linker. Residues count along the entry.
recombinant human C5-his protein (Sino Biological Inc., Cat#13416-H18H) (P01031, residues 19-1676): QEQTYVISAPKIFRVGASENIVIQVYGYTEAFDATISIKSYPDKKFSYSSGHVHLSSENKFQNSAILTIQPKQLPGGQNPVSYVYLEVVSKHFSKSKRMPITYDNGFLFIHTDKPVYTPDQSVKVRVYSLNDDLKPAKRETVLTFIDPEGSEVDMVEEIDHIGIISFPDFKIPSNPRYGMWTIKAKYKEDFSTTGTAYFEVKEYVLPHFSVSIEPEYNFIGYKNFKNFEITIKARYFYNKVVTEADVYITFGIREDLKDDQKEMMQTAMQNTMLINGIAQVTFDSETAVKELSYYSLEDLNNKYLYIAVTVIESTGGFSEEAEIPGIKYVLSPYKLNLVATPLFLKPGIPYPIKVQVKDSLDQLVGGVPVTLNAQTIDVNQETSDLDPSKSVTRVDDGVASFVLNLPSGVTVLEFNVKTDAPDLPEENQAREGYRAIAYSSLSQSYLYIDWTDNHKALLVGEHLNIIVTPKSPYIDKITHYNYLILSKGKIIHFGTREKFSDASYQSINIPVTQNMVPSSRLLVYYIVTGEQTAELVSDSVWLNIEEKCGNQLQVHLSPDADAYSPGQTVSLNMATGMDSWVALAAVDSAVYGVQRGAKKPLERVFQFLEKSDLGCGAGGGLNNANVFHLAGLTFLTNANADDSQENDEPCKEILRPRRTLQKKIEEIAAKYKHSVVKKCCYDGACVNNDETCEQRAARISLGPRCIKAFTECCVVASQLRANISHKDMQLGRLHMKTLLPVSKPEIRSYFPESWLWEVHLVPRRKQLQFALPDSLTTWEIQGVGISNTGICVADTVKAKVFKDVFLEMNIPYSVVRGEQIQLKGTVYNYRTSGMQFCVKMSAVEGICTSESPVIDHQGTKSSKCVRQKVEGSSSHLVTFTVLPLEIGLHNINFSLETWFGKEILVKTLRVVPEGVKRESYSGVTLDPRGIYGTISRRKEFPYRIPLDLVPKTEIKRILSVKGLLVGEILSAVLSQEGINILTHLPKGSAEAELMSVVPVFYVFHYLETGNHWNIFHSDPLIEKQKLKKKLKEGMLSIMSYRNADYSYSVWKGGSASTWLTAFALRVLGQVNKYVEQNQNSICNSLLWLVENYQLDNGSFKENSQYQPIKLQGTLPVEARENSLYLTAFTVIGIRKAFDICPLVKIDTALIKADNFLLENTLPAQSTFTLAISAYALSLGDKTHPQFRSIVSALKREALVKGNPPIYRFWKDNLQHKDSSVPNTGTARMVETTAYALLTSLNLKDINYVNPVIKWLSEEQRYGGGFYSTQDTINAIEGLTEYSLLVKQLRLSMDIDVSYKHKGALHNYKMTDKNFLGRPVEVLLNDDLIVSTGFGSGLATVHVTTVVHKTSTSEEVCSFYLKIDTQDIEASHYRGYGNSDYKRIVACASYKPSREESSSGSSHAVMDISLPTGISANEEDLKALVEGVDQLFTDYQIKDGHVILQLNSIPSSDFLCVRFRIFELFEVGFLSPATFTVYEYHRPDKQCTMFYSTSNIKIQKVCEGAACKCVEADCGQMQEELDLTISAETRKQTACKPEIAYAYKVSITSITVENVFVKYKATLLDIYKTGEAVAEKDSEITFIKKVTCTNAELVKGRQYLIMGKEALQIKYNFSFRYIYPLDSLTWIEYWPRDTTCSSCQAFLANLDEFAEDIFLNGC
mutant human C5 (R885H)-his protein (Acro biosystems, Cat#CO5-H52Hx) (P01031, form named): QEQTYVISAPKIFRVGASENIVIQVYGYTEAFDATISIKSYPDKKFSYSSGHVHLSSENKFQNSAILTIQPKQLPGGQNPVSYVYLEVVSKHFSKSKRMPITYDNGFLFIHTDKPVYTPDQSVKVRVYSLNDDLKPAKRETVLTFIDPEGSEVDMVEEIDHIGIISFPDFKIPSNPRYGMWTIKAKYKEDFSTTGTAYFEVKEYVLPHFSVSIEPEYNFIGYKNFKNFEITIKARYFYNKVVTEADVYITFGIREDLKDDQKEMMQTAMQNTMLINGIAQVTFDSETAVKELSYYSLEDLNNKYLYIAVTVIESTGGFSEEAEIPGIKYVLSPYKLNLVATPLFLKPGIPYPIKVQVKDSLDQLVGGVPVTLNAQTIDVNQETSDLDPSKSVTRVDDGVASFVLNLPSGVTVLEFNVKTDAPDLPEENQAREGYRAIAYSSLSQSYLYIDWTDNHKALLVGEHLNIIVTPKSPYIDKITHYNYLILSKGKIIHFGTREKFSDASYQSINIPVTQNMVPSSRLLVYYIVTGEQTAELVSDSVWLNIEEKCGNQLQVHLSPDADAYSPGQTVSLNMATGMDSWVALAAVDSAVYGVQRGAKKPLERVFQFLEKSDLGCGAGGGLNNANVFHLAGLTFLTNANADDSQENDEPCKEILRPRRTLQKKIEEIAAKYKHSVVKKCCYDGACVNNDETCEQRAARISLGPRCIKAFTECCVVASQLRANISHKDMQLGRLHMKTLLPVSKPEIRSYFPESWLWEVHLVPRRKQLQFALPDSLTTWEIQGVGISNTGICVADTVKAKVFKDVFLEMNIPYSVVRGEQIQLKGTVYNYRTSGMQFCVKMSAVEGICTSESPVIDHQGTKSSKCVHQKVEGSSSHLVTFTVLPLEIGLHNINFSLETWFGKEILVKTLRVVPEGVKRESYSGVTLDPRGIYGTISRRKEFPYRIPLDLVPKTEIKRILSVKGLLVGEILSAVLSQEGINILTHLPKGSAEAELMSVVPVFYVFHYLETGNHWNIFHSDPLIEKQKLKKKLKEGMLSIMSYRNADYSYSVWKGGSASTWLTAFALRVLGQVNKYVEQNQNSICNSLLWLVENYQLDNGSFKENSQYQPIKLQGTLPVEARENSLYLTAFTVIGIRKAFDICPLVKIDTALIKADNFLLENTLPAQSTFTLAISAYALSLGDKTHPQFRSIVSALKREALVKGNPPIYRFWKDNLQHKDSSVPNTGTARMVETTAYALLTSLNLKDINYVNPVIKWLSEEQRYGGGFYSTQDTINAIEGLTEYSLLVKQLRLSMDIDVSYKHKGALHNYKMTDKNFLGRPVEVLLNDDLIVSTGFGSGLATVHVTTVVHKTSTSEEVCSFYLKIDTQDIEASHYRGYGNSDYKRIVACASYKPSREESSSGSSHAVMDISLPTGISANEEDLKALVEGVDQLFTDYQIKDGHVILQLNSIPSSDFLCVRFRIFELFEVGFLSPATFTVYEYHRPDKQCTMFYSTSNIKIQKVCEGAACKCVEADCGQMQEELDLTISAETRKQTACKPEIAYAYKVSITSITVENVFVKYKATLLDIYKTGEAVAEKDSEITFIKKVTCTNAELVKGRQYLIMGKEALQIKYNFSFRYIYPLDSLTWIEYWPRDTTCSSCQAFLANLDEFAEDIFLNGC

Assays:
[1] = molecular target: cynomolgus monkey C5-his protein (Acro biosystems, Cat#CO5-C52Hx) (cynomolgus monkey); test: SPR (Biacore T200)
[2] = molecular target: mutant human C5 (R885H)-his protein (Acro biosystems, Cat#CO5-H52Hx) (human) (UniProt P01031); test: SPR (Biacore T200)
[3] = molecular target: recombinant human C5-his protein (Sino Biological Inc., Cat#13416-H18H) (human) (UniProt P01031); test: SPR (Biacore T200)
[4] = molecular target: cynomolgus monkey C5-his protein (Acro biosystems, Cat#CO5-C52Hx) (cynomolgus monkey); test: indirect ELISA, cynomolgus C5-his coated
[5] = molecular target: mutant human C5 (R885H)-his protein (Acro biosystems, Cat#CO5-H52Hx) (human) (UniProt P01031); test: indirect ELISA, human C5 (R885H)-his coated
[6] = molecular target: recombinant human C5-his protein (Sino Biological Inc., Cat#13416-H18H) (human) (UniProt P01031); test: capture ELISA, antibody captured by anti-human IgG Fc, biotin human C5-his

binding [1]: binds | binding [2]: binds | binding [3]: binds | binding [4]: binds | binding [5]: binds | binding [6]: binds
B1: A2E12G12H7 (antibody, V domains shown)
VH: QVQLVQSGAEVKKPGASVKVSCKASGYTFTGYYIHWVRQAPGQGLEWMGWINPNSGSTNSAQKFQDWVTLTRDTSISTAYMELSRLKSDDTAVYYCARRADYYGSGNFYYFDYWGQGTLVTVSS
VL: DIQMTQSPSSVSASVGDRVTISCRASQSISRWLAWYQQKPGKAPKLLIYAATSLQSGVPSRFSGSGFVRDFTLTISSLQPEDFATYYCQQANTFPLIFGGGTKVEIK
